Measured values taken from paper PMC11148087.
These are yes or no findings as the source states them, for the method shown. Binding seen in cells or lysates may run through a third protein. Some binding calls cover weakened binding; strength is not graded here.

The chains behind the UniProt entries cited, without tags or fusion partners.
UniProt Q15561: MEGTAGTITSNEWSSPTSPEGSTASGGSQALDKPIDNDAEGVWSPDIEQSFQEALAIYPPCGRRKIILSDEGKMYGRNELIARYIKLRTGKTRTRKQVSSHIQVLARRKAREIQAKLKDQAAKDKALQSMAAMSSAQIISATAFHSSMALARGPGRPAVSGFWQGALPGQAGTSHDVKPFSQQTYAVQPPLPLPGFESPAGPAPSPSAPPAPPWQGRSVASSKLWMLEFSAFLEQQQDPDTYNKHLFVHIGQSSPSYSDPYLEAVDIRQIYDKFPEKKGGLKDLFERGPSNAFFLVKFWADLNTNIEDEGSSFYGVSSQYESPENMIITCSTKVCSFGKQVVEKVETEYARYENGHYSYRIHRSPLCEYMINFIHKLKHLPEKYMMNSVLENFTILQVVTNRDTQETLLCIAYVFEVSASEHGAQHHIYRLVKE

Molecular target: TEA domain transcription factor 4 (human (endogenous in LX-2)) (UniProt Q15561)
Assay: co-IP; 1 mg nuclear extract of LX-2 cells precipitated with 5 ug anti-TEAD4 (ab58310, Abcam) overnight at 4 °C, protein A/G Dynabeads, washes with 25 mM Tris-HCl pH 8.0, 150 mM NaCl, 1 mM EDTA, 0.2% NP-40; BNC2, TEAD4 and YAP1 detected by western blot or simple western immunoassay; also from cells treated with 50 uM OSMI-1 (OGTi) for 24 h, where the complex was diminished

binding: binds
B1: Basonuclin 2 (protein, UniProt Q6ZN30 1-1099)
chain: MAHLGPTPPPHSLNYKSEDRLSEQDWPAYFKVPCCGVDTSQIESEEAEVDVRERETQRDREPKRARDLTLRDSCTDNSMQFGTRTTTAEPGFMGTWQNADTNLLFRMSQQAIRCTLVNCTCECFQPGKINLRTCDQCKHGWVAHALDKLSTQHLYHPTQVEIVQSNVVFDISSLMLYGTQAVPVRLKILLDRLFSVLKQEEVLHILHGLGWTLRDYVRGYILQDAAGKVLDRWAIMSREEEIITLQQFLRFGETKSIVELMAIQEKEGQAVAVPSSKTDSDIRTFIESNNRTRSPSLLAHLENSNPSSIHHFENIPNSLAFLLPFQYINPVSAPLLGLPPNGLLLEQPGLRLREPSLSTQNEYNESSESEVSPTPYKNDQTPNRNALTSITNVEPKTEPACVSPIQNSAPVSDLTKTEHPKSSFRIHRMRRMGSASRKGRVFCNACGKTFYDKGTLKIHYNAVHLKIKHRCTIEGCNMVFSSLRSRNRHSANPNPRLHMPMLRNNRDKDLIRATSGAATPVIASTKSNLALTSPGRPPMGFTTPPLDPVLQNPLPSQLVFSGLKTVQPVPPFYRSLLTPGEMVSPPTSLPTSPIIPTSGTIEQHPPPPSEPVVPAVMMATHEPSADLAPKKKPRKSSMPVKIEKEIIDTADEFDDEDDDPNDGGAVVNDMSHDNHCHSQEEMSPGMSVKDFSKHNRTRCISRTEIRRADSMTSEDQEPERDYENESESSEPKLGEESMEGDEHIHSEVSEKVLMNSERPDENHSEPSHQDVIKVKEEFTDPTYDMFYMSQYGLYNGGGASMAALHESFTSSLNYGSPQKFSPEGDLCSSPDPKICYVCKKSFKSSYSVKLHYRNVHLKEMHVCTVAGCNAAFPSRRSRDRHSANINLHRKLLTKELDDMGLDSSQPSLSKDLRDEFLVKIYGAQHPMGLDVREDASSPAGTEDSHLNGYGRGMAEDYMVLDLSTTSSLQSSSSIHSSRESDAGSDEGILLDDIDGASDSGESAHKAEAPALPGSLGAEVSGSLMFSSLSGSNGGIMCNICHKMYSNKGTLRVHYKTVHLREMHKCKVPGCNMMFSSVRSRNRHSQNPNLHKNIPFTSVD
